Assay results reported in PubChem BioAssay AID1508600 (Functional Genomics Laboratory (NCATS/FGL), 2020).
Screen size: about 53,000 sequences; about 3,700 (7%) were called active.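 How the source made its calls: active means gene knockdowns whose robust z-score for IL-1 alpha signal is at least 2 or at most -2, so actives lie on both sides; inactive means the rest.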 This is one part of the list.

assay: Components of the Cytosolic LPS Sensing Pathway: Gene Identification via Genome-wide siRNA Screen; conditions: RAW264.7 macrophages, IL-1a HTRF, actives lie on both sides, screened at 100 nM (by protocol), cells primed 5 h with Pam3CSK4 first;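 further: robust z of the log signal after scaling to non-targeting control siRNA wells of the plate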
How it was run: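 Cells (RAW264.7, 1×10^4 per well) were transfected with siRNA at 100 nM and cultured 48h at 37 degrees C. Pam3CSK4 was added for 5 hours; LipidA transfection followed for 24 hour. IL-1a was then measured by HTRF.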

Which z-score does the source give for GGUAUUAGUCCACUUAGGATT against Mplkip here?
Its z-score is inactive: -0.0279.

Which z-score does the source give for CCCUAAGUAAUAGAAGUGGTT against Coa4 here?
The z-score was inactive: -1.76.

Which z-score does the source give for CUUAGCUACUUCAAGGUCATT against Spink8 here?
Its z-score is inactive: 0.628.

With CGAUCCGAAUGGGUCGACUTT against Bola1 as the sequence, how does the z-score read?
The z-score was inactive: 0.896.

With CCACAUCUUUGACGAGUACTT against Rgs16 as the sequence, how does the z-score read?
The z-score was inactive: -0.145.

For GCAUAUAAUGUCUAACUCGTT against Eml4, which z-score is on record?
Its z-score is inactive: -0.0328.

With GGAACUAUUGAGUUGUUGUTT against Pcdha5 as the sequence, how does the z-score read?
The z-score was inactive: 0.15.

For CCCAAUAUUCAAGGAUAUATT against Grk4, which z-score is on record?
The z-score was inactive: 0.164.

Which z-score does the source give for GGUGGUGUCUUCUGUGCAATT against Cd3d here?
The z-score was inactive: 0.543.

With GGACUUGCAUUCUUAUGCUTT against Dipk2b as the sequence, how does the z-score read?
Its z-score is inactive: 0.769.

Which z-score does the source give for GGAUAAUGCUUUAUGGGAATT against Ccdc70 here?
The z-score was inactive: 0.899.

With GAAUGCGAAGCCUUCCGCATT against Gfra4 as the sequence, how does the z-score read?
Its z-score is inactive: 1.2.

With GGAAAAGCAUUUUCAACGUTT against Lhfpl2 as the sequence, how does the z-score read?
Its z-score is inactive: -1.41.

With GCUCAAGUGCGAUUGUAAGTT against Arhgef10l as the sequence, how does the z-score read?
The z-score was inactive: -1.11.

Which z-score does the source give for GGAAAUCAGUGAACAUCUUTT against Tshr here?
Its z-score is inactive: 0.525.

Which z-score does the source give for GGAGUAAAGACAUUCAGGATT against Nlrp4f here?
The z-score was inactive: 0.716.

Which z-score does the source give for GCAACCUUUUUACAACACCTT against Zfp935 here?
Its z-score is inactive: -0.272.

With GGAUAAAGCCCAGUGAACCTT against Fam163b as the sequence, how does the z-score read?
Its z-score is inactive: 0.29.

For GGAUGUACGGAAGCGAUUCTT against Gmpr2, which z-score is on record?
The z-score was inactive: 0.404.

For GGUGGAGCUGCUCAAGAUUTT against Fkbp2, which z-score is on record?
The z-score was inactive: -0.733.

For GGUUUUAGGGUUUUUAACATT against Lpar2, which z-score is on record?
The z-score was inactive: 0.0242.

With GGAUGAGCAGAUGCUCCAATT against Mtmr7 as the sequence, how does the z-score read?
The z-score was inactive: 0.451.

Which z-score does the source give for GCUCAAUGCAGAAGGACGGTT against Bpifa3 here?
The z-score was inactive: 0.432.

Which z-score does the source give for GGCCCUUCCCAAAGUAUUATT against Mup3 here?
The z-score was inactive: -0.936.

With GGAAGAAAAUCUUGAAGCATT against Ddx51 as the sequence, how does the z-score read?
The z-score was inactive: -0.232.

With GCUAGUGAGUCGCUUGACUTT against Abcb8 as the sequence, how does the z-score read?
The z-score was inactive: 0.712.

With GCUAAUAGCCUGCCUAAGGTT against Plekhj1 as the sequence, how does the z-score read?
Its z-score is inactive: 1.35.

With GGGUGGAGUGAAAUACUUUTT against Fam83f as the sequence, how does the z-score read?
The z-score was inactive: 0.728.

For GCAACUCGUACAAAAGGCGTT against Cnga1, which z-score is on record?
The z-score was inactive: -1.14.

With GGUGAGCAAGAACAAAAAGTT against Chil6 as the sequence, how does the z-score read?
Its z-score is inactive: -0.71.

For GGUUACCUGUGAAAAUAGUTT against Zfp606, which z-score is on record?
Its z-score is inactive: 1.54.

With GAAGCUGUUGCUACUGGACTT against Pth2 as the sequence, how does the z-score read?
Its z-score is inactive: -0.408.

For GGACUUUUCUGCUAUUUACTT against Kcnh2, which z-score is on record?
Its z-score is inactive: -0.471.

For GGCUAAAUAUUACCACUGATT against Dyrk3, which z-score is on record?
The z-score was inactive: -0.198.

With GGACAAAAGACAAAUACCGTT against Cdx2 as the sequence, how does the z-score read?
Its z-score is inactive: -1.12.

With “GGCUCUCUGAGGAUUCGAATT against 4930544M13Rik” as the sequence, how does the z-score read?
Its z-score is inactive: -0.209.

With GGUUGGACAAAAAGAAUCUTT against Ifngr1 as the sequence, how does the z-score read?
The z-score was inactive: 0.507.

For CCUUGGACUAUGGCAAAAATT against Neurod6, which z-score is on record?
Its z-score is inactive: 0.418.

Which z-score does the source give for CCGUGCAACAAAAACUGGATT against Tnpo1 here?
Its z-score is inactive: -1.08.

With CGCAUACUGUGGAAUAGUUTT against Spag4 as the sequence, how does the z-score read?
The z-score was inactive: -1.26.

Which z-score does the source give for GGCUUUUAGUACUGAUAGUTT against Neu3 here?
Its z-score is active: 2.6.

Which z-score does the source give for GGAGAAAAGAGGCUUCCAGTT against Lad1 here?
The z-score was inactive: 0.754.

Which z-score does the source give for CCUUCAAUCUUCCUAGUGATT against Bag6 here?
Its z-score is inactive: -0.0397.

For CCAAUCUCCAGUUCAACAATT against Parp2, which z-score is on record?
Its z-score is inactive: -0.215.

With GGCCUGAAGGGAAAGAUUUTT against Rbbp4 as the sequence, how does the z-score read?
Its z-score is inactive: -0.721.

For UGAUUAUUGACCUGUUAGUTT against Olfr1193, which z-score is on record?
Its z-score is inactive: 0.926.

For GGAAAGGAACAGAAAAGAATT against Tenm2, which z-score is on record?
The z-score was inactive: -0.295.

Which z-score does the source give for GGACCUGCUCUUGGUCAUUTT against Fam118a here?
The z-score was inactive: 0.461.

With GGGACUGAUCGGUACCGAATT against Igsf8 as the sequence, how does the z-score read?
Its z-score is inactive: 0.531.

With GUCUUCAACUCAGUUCAGUTT against Wap as the sequence, how does the z-score read?
The z-score was inactive: -0.433.

With GGAUGGUCAAACACGUCACTT against Pla2g2c as the sequence, how does the z-score read?
The z-score was inactive: 0.157.

Which z-score does the source give for GGAGUUGCUGUACAACAAGTT against Ndufs8 here?
The z-score was inactive: -0.576.

Which z-score does the source give for GGAUGAAUACAGUGAAUAUTT against Ppil3 here?
Its z-score is inactive: -0.429.

With GGUGGAAAUCGAUAAAACUTT against Slc15a1 as the sequence, how does the z-score read?
The z-score was inactive: -0.573.

With CCGUGUGAAUCCCUGCAUUTT against Aldoa as the sequence, how does the z-score read?
Its z-score is active: -2.85.

For GGAAACCUUUUCAUUAACATT against Il23r, which z-score is on record?
Its z-score is inactive: 0.138.

For UCAUAGCAGAGAUUAGAAUTT against Hsfy2, which z-score is on record?
The z-score was inactive: -0.951.

Which z-score does the source give for GGUGUGUUACAACCAUUUGTT against Hsd17b6 here?
Its z-score is inactive: -0.392.

With GGAAAUGAAGGAAAAGGAATT against Ccny as the sequence, how does the z-score read?
Its z-score is inactive: -1.51.

Which z-score does the source give for GGUAUGACACAGUCAUACUTT against Vmn1r26 here?
Its z-score is inactive: 0.596.

For GGCAAAGGAUCCAAGUUUGTT against Tmem123, which z-score is on record?
Its z-score is active: 2.81.

Which z-score does the source give for GCACAUAUGUCUUUCCCAGTT against Fbxl7 here?
The z-score was inactive: -0.931.

For GGAGUUGAAGAGAAGCAGGTT against Tac4, which z-score is on record?
The z-score was inactive: -1.65.

With GGUCUAGCUCACAUCACACTT against C2 as the sequence, how does the z-score read?
Its z-score is inactive: -1.16.

For CCGAAUCUCUCACGUGCCATT against Rtn4r, which z-score is on record?
Its z-score is inactive: -0.474.

For CGAAAGGUCAAAUUAACAGTT against Serpinb5, which z-score is on record?
The z-score was inactive: 1.23.

Which z-score does the source give for GGGAACAAAAUCCAUGACGTT against Tdo2 here?
The z-score was inactive: -0.468.

Which z-score does the source give for GGCUCACAUUGUAACUUAGTT against Krtap5-2 here?
The z-score was inactive: 1.41.
